PubChem BioAssay AID1508588 | Peter MacCallum Cancer Centre | 2020
Shown is a random part of about 18,000 deposited reagents. 790 of them (4.4%) were called active. 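Calls rest on a combination of fold-change classes in drug and vehicle arms, not all shown here.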

Test: 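Which gene losses make BRAF-mutant melanoma cells more responsive to vemurafenib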 (primary screen)
System: human WM266.4 melanoma cells (BRAF V600 mutant)
Knock-down reagent: siRNA pool against human genes, 40 nM
Duration: 96 h from transfection to read-out
Challenge: vemurafenib 300 nM (about IC25), added 48 h after transfection, for 48 h; comparison arm got DMSO vehicle only
Read-out: 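Cell gain (DAPI nuclei at end minus before drug, mean of two replicates) and medium lactate by absorbance per cell, both as ratio to non-targeting siRNA, also grouped into fold-change classes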
Scale: cell gain with vemurafenib: higher = more cell gain than with non-targeting siRNA; lactate per cell with vemurafenib: higher = more lactate made per cell
Hit rule: 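a knock-down counts as enhancing when its fold-change classes with vehicle and with vemurafenib, taken together, show a stronger drug effect on cell gain or lactate per cell; exact class pairs not stated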
Calls: active = enhances vemurafenib effect; inactive = no enhancement seen

no.	gene	cell gain with vemurafenib	lactate per cell with vemurafenib	outcome
1	MGRN1	1.06	1.02	inactive
2	EVI2B	0.66	0.84	inactive
3	OR52W1	0.15	0.98	inactive
4	TRAF6	1.1	0.68	inactive
5	ZNF628	0.54	1.3	inactive
6	ASB3	0.36	1.12	inactive
7	GSX1	0.05	1.82	inactive
8	SEPTIN9	0.78	1.21	inactive
9	MDH1	0.76	0.61	inactive
10	PPCDC	0.36	1.6	inactive
11	PHF14	0.17	1.32	inactive
12	KLHL30	0.63	0.97	inactive
13	SEPTIN10	0.2	1.34	inactive
14	SLURP1	0.66	1.05	inactive
15	KY	0.01	0.17	inactive
16	ACADL	0.34	2.58	inactive
17	CADPS	0.66	0.46	inactive
18	RCAN1	0.5	0.66	inactive
19	RGS9	0.63	1.53	inactive
20	HSFY2	0.71	0.74	inactive
21	EDC3	0.41	1.12	inactive
22	YAF2	0.47	1.36	inactive
23	C11orf87	0.32	0.72	inactive
24	NES	0.17	0.42	active
25	AMER2	0.11	1.4	inactive
26	LGI4	0.84	1.17	inactive
27	GGPS1	1.04	0.49	inactive
28	FCHO1	0.92	0.86	inactive
29	NLGN3	0.84	0.97	inactive
30	CD72	1.46	0.8	inactive
31	SOX12	0.73	0.8	inactive
32	NASP	0.37	0.38	inactive
33	ZNF271P	0.44	0.28	active
34	LIMD2	0.8	0.68	inactive
35	ABHD5	0.42	1.04	inactive
36	CYBA	0.5	0.54	inactive
37	LRP5	0.72	0.82	inactive
38	GJA4	1.27	0.68	inactive
39	PRDM15	0.52	1.72	inactive
40	HIVEP3	1.29	0.78	inactive
41	ACADVL	0.93	0.82	inactive
42	OTUB1	0.27	0.92	inactive
43	CPO	0.78	0.64	inactive
44	MINDY3	0.78	0.68	inactive
45	FBLN5	0.48	1.38	inactive
46	SMARCD2	0.44	1.2	inactive
47	CCL2	0.2	-0.07	active
48	SHC1	0.83	0.44	active
49	THEMIS2	1.27	0.72	inactive
50	PCDHA10	0.91	0.47	inactive
51	AKR7L	0.76	1.62	inactive
52	FOXP1	0.33	1.17	inactive
53	PMEL	0.67	1.1	inactive
54	IFITM3	0.35	1.1	inactive
55	RHOBTB1	0.36	1.16	inactive
56	ITGB8	0.22	1.28	inactive
57	CHM	0.72	0.34	inactive
58	ADI1	0.65	1.9	inactive
59	GJC1	0.88	1.01	inactive
60	OR6C4	0.82	1.04	inactive
61	ANKS1A	0.3	1.05	inactive
62	OSCAR	0.51	0.32	inactive
63	OR1F1	0	0.35	inactive
64	MS4A1	0.87	0.58	inactive
65	RELL1	0.96	1.19	inactive
66	HMGB2	0.51	0.86	inactive
67	SNRPA	0.85	1.09	inactive
68	ZDHHC24	0.16	1.11	inactive
69	MPZL2	0.64	0.95	inactive
70	ATP2C1	0.62	0.19	active
71	GRK6	0.31	1.29	inactive
72	DCAF4L1	0.88	0.82	inactive
73	ALDH3A1	0.41	0.75	inactive
74	FRRS1L	0.22	2.32	inactive
75	CDC5L	0.27	1.69	inactive
76	C5orf46	0.41	1.04	inactive
77	LRFN4	0.71	0.4	inactive
78	APTX	0.61	0.61	active
79	PLG	0.59	0.8	inactive
80	CHEK2	0.81	0.68	inactive
81	CST6	0.54	0.81	inactive
82	CAMK2G	1.01	0.49	inactive
83	C1orf146	0.44	2.09	inactive
84	EOLA1	0.36	0.75	inactive

Reagents listed so far called active (6):
gene	cell gain with vemurafenib	lactate per cell with vemurafenib	outcome
NES	0.17	0.42	active
ZNF271P	0.44	0.28	active
CCL2	0.2	-0.07	active
SHC1	0.83	0.44	active
ATP2C1	0.62	0.19	active
APTX	0.61	0.61	active
